These are literature values, as cited in paper PMC6412891, “Synthesis and Biological Evaluation of Novel Thiazolyl-Coumarin Derivatives as Potent Histone Deacetylase Inhibitors with Antifibrotic Activity” (Molecules, 2019).

In the data set the test system is CFs. On the set-up: method as in PMID 24631770, PMID 24374140. The settings on record: cited from earlier work.

Turning to `O=C(CCCCCCC(=O)Nc1ccccc1)NO` [SAHA, suberoylanilide hydroxamic acid], the “concentration shown to inhibit the proliferation of CFs” value was 10 µM.
